The other results are listed elsewhere or left out. Most values lie at the level of the controls, where differences are scatter.
compound: Cc1nc(Nc2ncc(C(=O)Nc3c(C)cccc3Cl)s2)cc(N2CCN(CCO)CC2)n1 [dasatinib]; assay: log2 fold change of tryptic peptide abundance, ligand vs vehicle (limited proteolysis) (log2 ratio); higher = more trypsin-susceptible (destabilized); details: ligand concentration: 5 uM; sample: K562 cleared lysate

The chains behind the UniProt entries cited, without tags or fusion partners. Where a name states a change or a piece, a line headed by the entry shows the natural chain unless it says otherwise.
UniProt P36969, whole entry: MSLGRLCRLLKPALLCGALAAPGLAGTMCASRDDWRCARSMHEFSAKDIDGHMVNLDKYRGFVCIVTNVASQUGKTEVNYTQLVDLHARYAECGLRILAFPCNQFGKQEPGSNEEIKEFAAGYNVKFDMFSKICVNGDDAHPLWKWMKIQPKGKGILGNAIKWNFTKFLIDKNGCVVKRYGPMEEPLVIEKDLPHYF
UniProt P42575: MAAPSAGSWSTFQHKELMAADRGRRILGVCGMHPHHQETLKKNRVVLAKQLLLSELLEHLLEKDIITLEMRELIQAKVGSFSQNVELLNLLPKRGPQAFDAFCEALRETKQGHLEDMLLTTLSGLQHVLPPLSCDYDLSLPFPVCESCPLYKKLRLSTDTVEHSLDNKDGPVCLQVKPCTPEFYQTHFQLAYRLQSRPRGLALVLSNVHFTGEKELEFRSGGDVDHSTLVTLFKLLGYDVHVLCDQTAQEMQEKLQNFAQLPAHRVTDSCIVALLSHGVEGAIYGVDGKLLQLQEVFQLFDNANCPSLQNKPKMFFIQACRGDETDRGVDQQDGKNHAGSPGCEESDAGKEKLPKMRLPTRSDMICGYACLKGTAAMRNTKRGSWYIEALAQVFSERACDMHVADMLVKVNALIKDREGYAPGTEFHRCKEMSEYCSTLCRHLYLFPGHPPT
UniProt P40123, whole entry: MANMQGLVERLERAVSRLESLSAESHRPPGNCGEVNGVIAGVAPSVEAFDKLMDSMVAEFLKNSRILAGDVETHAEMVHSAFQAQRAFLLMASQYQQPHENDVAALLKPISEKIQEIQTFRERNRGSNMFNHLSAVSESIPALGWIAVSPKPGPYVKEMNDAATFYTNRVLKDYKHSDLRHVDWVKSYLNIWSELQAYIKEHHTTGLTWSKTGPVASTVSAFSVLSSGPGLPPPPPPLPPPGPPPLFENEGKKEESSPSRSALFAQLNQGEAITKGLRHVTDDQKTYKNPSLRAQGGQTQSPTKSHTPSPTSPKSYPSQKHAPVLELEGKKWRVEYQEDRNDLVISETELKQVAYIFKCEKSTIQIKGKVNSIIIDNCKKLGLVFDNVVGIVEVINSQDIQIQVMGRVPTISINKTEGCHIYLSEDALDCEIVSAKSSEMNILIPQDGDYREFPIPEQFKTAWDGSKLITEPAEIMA
UniProt P45985: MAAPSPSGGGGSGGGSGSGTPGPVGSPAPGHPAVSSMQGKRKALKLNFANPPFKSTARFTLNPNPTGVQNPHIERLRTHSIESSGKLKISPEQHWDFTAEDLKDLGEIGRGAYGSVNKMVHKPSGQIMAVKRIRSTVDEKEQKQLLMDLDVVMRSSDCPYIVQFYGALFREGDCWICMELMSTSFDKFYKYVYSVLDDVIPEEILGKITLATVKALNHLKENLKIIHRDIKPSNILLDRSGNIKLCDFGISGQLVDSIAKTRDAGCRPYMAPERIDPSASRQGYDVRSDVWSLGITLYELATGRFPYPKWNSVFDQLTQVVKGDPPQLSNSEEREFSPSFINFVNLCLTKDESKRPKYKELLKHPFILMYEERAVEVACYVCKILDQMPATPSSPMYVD
UniProt P38398, whole entry, looked up: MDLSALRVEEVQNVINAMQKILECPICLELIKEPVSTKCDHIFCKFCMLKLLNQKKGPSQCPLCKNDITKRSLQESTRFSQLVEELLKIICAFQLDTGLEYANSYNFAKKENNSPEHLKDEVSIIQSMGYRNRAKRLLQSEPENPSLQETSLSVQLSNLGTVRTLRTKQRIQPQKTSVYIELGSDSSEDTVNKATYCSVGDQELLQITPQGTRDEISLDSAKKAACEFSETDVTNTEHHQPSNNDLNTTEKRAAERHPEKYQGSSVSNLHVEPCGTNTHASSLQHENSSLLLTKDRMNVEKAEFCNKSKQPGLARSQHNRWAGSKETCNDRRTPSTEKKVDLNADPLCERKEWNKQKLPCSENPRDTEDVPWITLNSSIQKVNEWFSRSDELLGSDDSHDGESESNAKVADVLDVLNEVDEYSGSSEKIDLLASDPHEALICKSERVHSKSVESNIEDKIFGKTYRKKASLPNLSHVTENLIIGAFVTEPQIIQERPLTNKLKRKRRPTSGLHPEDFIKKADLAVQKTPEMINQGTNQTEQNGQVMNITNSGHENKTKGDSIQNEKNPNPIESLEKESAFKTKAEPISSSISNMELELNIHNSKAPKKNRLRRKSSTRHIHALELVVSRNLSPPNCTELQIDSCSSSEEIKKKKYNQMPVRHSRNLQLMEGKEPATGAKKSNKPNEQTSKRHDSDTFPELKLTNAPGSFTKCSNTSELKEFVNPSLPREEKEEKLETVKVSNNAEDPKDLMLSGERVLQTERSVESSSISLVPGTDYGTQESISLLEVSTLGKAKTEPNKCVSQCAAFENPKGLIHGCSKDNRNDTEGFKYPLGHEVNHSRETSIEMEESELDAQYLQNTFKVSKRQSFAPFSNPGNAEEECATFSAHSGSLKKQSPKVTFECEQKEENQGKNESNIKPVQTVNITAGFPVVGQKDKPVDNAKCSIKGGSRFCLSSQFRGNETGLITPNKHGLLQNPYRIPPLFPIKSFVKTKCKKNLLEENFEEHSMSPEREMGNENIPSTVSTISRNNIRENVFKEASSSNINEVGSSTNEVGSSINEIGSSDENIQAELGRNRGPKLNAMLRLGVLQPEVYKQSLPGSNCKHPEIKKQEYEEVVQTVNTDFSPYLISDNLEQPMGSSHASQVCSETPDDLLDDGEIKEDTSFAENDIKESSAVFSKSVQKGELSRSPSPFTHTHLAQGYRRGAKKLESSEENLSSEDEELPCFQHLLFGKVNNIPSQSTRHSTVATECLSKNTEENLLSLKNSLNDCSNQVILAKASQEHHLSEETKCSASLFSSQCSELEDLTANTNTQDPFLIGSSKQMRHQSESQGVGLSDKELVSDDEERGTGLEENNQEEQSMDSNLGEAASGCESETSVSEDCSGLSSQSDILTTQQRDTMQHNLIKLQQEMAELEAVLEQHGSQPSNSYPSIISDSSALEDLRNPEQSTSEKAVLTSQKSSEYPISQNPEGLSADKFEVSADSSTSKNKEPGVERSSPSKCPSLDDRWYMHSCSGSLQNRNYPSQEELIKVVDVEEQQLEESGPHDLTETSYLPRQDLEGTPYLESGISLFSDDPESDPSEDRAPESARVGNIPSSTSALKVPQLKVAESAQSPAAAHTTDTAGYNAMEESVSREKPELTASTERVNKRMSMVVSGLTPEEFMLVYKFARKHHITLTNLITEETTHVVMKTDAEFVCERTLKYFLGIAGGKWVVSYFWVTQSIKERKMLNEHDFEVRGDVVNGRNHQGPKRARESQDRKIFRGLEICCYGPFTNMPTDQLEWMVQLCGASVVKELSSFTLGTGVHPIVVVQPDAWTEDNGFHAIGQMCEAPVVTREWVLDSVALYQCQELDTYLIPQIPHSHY
UniProt P28698: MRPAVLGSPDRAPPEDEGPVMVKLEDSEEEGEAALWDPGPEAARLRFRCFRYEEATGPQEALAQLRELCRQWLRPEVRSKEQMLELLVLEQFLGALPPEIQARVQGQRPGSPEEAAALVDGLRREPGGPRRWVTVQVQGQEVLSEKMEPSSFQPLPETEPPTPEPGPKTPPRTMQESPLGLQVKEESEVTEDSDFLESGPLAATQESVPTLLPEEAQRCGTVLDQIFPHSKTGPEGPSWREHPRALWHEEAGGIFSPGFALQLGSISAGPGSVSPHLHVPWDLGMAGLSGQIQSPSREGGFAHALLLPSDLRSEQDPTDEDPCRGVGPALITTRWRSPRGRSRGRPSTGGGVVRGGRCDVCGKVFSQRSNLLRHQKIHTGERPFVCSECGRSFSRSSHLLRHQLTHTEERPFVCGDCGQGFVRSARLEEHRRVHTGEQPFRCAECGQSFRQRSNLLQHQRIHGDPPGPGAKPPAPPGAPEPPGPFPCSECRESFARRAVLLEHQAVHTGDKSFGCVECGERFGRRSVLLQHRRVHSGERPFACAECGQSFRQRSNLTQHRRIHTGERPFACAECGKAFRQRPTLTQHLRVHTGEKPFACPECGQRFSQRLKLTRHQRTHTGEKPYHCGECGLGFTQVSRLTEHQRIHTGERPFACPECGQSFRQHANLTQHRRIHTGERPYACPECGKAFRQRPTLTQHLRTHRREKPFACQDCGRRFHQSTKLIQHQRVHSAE
UniProt P35626: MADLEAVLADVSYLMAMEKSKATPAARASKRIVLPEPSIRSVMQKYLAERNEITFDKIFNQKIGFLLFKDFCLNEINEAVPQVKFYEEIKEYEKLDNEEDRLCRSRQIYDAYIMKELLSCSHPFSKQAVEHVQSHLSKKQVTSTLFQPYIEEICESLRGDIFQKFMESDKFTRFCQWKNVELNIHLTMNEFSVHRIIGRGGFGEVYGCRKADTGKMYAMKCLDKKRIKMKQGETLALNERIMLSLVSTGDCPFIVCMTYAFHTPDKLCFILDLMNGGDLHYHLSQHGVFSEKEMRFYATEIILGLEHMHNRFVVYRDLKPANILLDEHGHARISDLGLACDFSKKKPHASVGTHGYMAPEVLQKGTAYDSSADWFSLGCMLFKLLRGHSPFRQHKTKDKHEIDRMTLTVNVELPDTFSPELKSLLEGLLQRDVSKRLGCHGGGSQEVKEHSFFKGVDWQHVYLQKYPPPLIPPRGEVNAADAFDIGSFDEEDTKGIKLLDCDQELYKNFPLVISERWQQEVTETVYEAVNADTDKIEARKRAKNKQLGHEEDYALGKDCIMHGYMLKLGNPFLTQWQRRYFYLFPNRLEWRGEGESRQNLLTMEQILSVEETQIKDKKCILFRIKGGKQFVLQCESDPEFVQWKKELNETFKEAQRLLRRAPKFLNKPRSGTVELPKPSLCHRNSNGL
UniProt P32119: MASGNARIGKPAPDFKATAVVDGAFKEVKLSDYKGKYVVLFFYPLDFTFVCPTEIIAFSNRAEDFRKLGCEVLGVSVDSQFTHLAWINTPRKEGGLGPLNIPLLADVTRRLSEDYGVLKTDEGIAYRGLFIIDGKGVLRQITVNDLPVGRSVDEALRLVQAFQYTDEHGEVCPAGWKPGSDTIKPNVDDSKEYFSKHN
UniProt P39880: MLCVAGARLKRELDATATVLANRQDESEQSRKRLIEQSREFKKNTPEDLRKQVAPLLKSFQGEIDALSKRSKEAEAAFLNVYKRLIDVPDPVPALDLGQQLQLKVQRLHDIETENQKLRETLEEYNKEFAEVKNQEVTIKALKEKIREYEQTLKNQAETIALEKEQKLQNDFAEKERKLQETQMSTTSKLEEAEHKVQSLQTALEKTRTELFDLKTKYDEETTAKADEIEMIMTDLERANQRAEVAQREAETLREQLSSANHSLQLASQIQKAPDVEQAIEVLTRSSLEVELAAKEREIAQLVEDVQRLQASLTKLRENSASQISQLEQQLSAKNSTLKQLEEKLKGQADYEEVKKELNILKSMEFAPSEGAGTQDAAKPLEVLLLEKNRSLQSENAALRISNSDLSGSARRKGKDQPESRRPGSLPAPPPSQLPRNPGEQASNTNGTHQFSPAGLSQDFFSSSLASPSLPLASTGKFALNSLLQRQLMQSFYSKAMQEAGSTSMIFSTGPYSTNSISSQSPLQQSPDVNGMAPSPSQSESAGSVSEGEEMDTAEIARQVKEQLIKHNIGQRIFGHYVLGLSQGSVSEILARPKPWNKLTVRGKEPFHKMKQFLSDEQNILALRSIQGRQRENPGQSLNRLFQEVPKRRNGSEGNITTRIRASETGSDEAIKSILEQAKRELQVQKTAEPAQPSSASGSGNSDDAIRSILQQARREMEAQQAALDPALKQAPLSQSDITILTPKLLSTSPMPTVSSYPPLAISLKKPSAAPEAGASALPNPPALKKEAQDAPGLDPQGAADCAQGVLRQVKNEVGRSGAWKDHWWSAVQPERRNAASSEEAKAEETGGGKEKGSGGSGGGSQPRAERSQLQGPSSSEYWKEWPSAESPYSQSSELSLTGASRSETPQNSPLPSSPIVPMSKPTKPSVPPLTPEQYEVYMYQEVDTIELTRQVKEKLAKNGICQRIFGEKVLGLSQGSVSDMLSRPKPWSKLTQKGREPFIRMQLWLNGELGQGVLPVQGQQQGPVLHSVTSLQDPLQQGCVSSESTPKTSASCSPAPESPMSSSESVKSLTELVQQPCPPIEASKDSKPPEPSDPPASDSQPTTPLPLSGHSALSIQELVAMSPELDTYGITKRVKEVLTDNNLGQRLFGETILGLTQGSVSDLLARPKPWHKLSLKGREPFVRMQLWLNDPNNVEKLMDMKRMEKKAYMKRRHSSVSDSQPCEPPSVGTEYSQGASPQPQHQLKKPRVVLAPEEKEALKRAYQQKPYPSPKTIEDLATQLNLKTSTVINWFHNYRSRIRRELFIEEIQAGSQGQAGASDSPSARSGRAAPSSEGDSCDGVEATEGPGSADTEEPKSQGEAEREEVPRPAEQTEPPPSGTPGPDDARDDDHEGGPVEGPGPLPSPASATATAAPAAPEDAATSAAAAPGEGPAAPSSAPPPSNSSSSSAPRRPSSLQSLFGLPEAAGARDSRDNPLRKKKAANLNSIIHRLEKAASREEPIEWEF

Row | Target | log2 fold change
1 | UQCRC1 (peptide sequence: SGMFWLR, peptide start residue: 473) (UniProt P31930) | 0.0652
2 | GPX4 (peptide sequence: YAECGLR, peptide start residue: 90) (UniProt P36969) | -0.126
3 | CASP2 (peptide sequence: EGYAPGTEFHR, peptide start residue: 418) (UniProt P42575) | -0.151
4 | SHMT1 (peptide sequence: DADLWSSHDK, peptide start residue: 11) (UniProt P34896) | 0.149
5 | SLC7A1 (peptide sequence: VLLNIGQQMLR, peptide start residue: 5) (UniProt P30825) | 0.228
6 | SHMT2 (peptide sequence: QACTPMFR, peptide start residue: 341) (UniProt P34897) | 0.146
7 | UniProt P36954 (peptide sequence: TEDHPCQKCGHK, peptide start residue: 81) | -0.284
8 | CAP2 (peptide sequence: VPTISINK, peptide start residue: 405) (UniProt P40123) | -0.248
9 | MAGEB1 (peptide sequence: VAHATAAEK, peptide start residue: 27) (UniProt P43366) | -0.528
10 | ACAA2 (peptide sequence: ISREECDKYALQSQQR, peptide start residue: 174) (UniProt P42765) | -0.00204
11 | LRPAP1 (peptide sequence: LAELHADLK, peptide start residue: 76) (UniProt P30533) | -0.552
12 | ATP6V1A (peptide sequence: ITWSIIR, peptide start residue: 565) (UniProt P38606) | -0.182
13 | UniProt P42679 (peptide sequence: AWHPPPVSAR, peptide start residue: 32) | -0.499
14 | UniProt P45985 (peptide sequence: GDPPQLSNSEER, peptide start residue: 323) | 0.179
15 | BRCA1 (peptide sequence: DKPVDNAK, peptide start residue: 936) (UniProt P38398) | -0.343
16 | UniProt P28698 (peptide sequence: EGGFAHALLLPSDLR, peptide start residue: 298) | 0.162
17 | UniProt P35626 (peptide sequence: QIYDAYIMK, peptide start residue: 107) | 0.356
18 | UniProt P40855 (peptide sequence: ELAEEEPHLVEQFQK, peptide start residue: 93) | 0.136
19 | IMPA1 (peptide sequence: EKYPSHSFIGEESVAAGEK, peptide start residue: 60) (UniProt P29218) | 0.139
20 | UniProt P41279 (peptide sequence: SAYPSYLYIIHK, peptide start residue: 334) | -0.0784
21 | HNRNPH3 (peptide sequence: GLPFGCSK, peptide start residue: 117) (UniProt P31942) | -0.085
22 | CPOX (peptide sequence: ATSLGRPEEEEDELAHR, peptide start residue: 110) (UniProt P36551) | -0.0789
23 | PRDX2 (peptide sequence: KEGGLGPLNIPLLADVTR, peptide start residue: 92) (UniProt P32119) | 0.196
24 | CUX1 (peptide sequence: SKEAEAAFLNVYKR, peptide start residue: 71) (UniProt P39880) | 0.231
25 | CCT6A (peptide sequence: ETLIDVAR, peptide start residue: 146) (UniProt P40227) | -0.122
26 | CASP3 (peptide sequence: KITNFFR, peptide start residue: 138) (UniProt P42574) | 0.356
27 | STX2 (peptide sequence: NHSIILSAPNPEGK, peptide start residue: 56) (UniProt P32856) | 0.744
28 | MKI67 (peptide sequence: DSLSKPEK, peptide start residue: 459) (UniProt P46013) | -0.488
29 | NMT1 (peptide sequence: GGLSPANDTGAK, peptide start residue: 44) (UniProt P30419) | -0.0308

Records 25 to 26 of the list above:
Row | Target | log2 fold change
25 | CCT6A (peptide sequence: ETLIDVAR, peptide start residue: 146) (UniProt P40227) | -0.122
26 | CASP3 (peptide sequence: KITNFFR, peptide start residue: 138) (UniProt P42574) | 0.356
